No constants are given. Whether binding was seen depends on the method and setting. Binding seen in cells or lysates may run through a third protein. A yes stands for co-enrichment or nearness to the bait. Other partners may have been found.
Columns and labels:
[1] = target: myc-BirA∗-DDB1 (human (cDNA from HeLa and HEK293 cells)) (UniProt Q16531); assay: proximity labelling; BioID with myc-BirA∗-DDB1 as bait in U2OS Flp-In T-Rex cells; doxycycline, 50 μM biotin 24 h; denaturing lysis, streptavidin beads, LC-MS/MS; SILAC: bait cells heavy (R10K8), myc-BirA∗ control cells light (R0K0); enriched = H/L ratio over 2; N = 3
[2] = target: GFP-DDB1 (human (cDNA from HeLa and HEK293 cells)) (UniProt Q16531); assay: affinity purification with mass spectrometry; GFP-DDB1 from U2OS Flp-In T-Rex lysate (50 mM Tris pH 7.4, NaCl, 1% Triton X-100, nuclease) on GFP-trap agarose beads, 3 h at 4 °C; SILAC: bait cells heavy (R10K8), GFP control cells light (R0K0); enriched = H/L ratio over 2; N = 3
[3] = target: GFP-DDB1 (human (cDNA from HeLa and HEK293 cells)), Q16531; assay: as above; conditions: remark: other sources report otherwise

Binder	binding [1]	binding [2]	binding [3]
WDTC1 (protein, UniProt Q8N5D0 1-677) MAKVNITRDLIRRQIKERGALSFERRYHVTDPFIRRLGLEAELQGHSGCVNCLEWNEKGDLLASGSDDQHTIVWDPLHHKKLLSMHTGHTANIFSVKFLPHAGDRILITGAADSKVHVHDLTVKETIHMFGDHTNRVKRIATAPMWPNTFWSAAEDGLIRQYDLRENSKHSEVLIDLTEYCGQLVEAKCLTVNPQDNNCLAVGASGPFVRLYDIRMIHNHRKSMKQSPSAGVHTFCDRQKPLPDGAAQYYVAGHLPVKLPDYNNRLRVLVATYVTFSPNGTELLVNMGGEQVYLFDLTYKQRPYTFLLPRKCHSSGEVQNGKMSTNGVSNGVSNGLHLHSNGFRLPESRGHVSPQVELPPYLERVKQQANEAFACQQWTQAIQLYSKAVQRAPHNAMLYGNRAAAYMKRKWDGDHYDALRDCLKAISLNPCHLKAHFRLARCLFELKYVAEALECLDDFKGKFPEQAHSSACDALGRDITAALFSKNDGEEKKGPGGGAPVRLRSTSRKDSISEDEMVLRERSYDYQFRYCGHCNTTTDIKEANFFGSNAQYIVSGSDDGSFFIWEKETTNLVRVLQGDESIVNCLQPHPSYCFLATSGIDPVVRLWNPRPESEDLTGRVVEDMEGASQANQRRMNADPLEVMLLNMGYRITGLSSGGAGASDDEDSSEGQVQCRPS	binds	binds	–
SNRNP40, Q96DI7 1-357 (protein) MIEQQKRKGPELPLVPVKRQRHELLLGAGSGPGAGQQQATPGALLQAGPPRCSSLQAPIMLLSGHEGEVYCCKFHPNGSTLASAGFDRLILLWNVYGDCDNYATLKGHSGAVMELHYNTDGSMLFSASTDKTVAVWDSETGERVKRLKGHTSFVNSCYPARRGPQLVCTGSDDGTVKLWDIRKKAAIQTFQNTYQVLAVTFNDTSDQIISGGIDNDIKVWDLRQNKLTYTMRGHADSVTGLSLSSEGSYLLSNAMDNTVRVWDVRPFAPKERCVKIFQGNVHNFEKNLLRCSWSPDGSKIAAGSADRFVYVWDTTSRRILYKLPGHAGSINEVAFHPDEPIIISASSDKRLYMGEIQ	–	–	binds
TRPC4AP (protein, UniProt Q8TEL6 1-797) MAAAPVAAGSGAGRGRRSAATVAAWGGWGGRPRPGNILLQLRQGQLTGRGLVRAVQFTETFLTERDKQSKWSGIPQLLLKLHTTSHLHSDFVECQNILKEISPLLSMEAMAFVTEERKLTQETTYPNTYIFDLFGGVDLLVEILMRPTISIRGQKLKISDEMSKDCLSILYNTCVCTEGVTKRLAEKNDFVIFLFTLMTSKKTFLQTATLIEDILGVKKEMIRLDEVPNLSSLVSNFDQQQLANFCRILAVTISEMDTGNDDKHTLLAKNAQQKKSLSLGPSAAEINQAALLSIPGFVERLCKLATRKVSESTGTASFLQELEEWYTWLDNALVLDALMRVANEESEHNQASIVFPPPGASEENGLPHTSARTQLPQSMKIMHEIMYKLEVLYVLCVLLMGRQRNQVHRMIAEFKLIPGLNNLFDKLIWRKHSASALVLHGHNQNCDCSPDITLKIQFLRLLQSFSDHHENKYLLLNNQELNELSAISLKANIPEVEAVLNTDRSLVCDGKRGLLTRLLQVMKKEPAESSFRFWQARAVESFLRGTTSYADQMFLLKRGLLEHILYCIVDSECKSRDVLQSYFDLLGELMKFNVDAFKRFNKYINTDAKFQVFLKQINSSLVDSNMLVRCVTLSLDRFENQVDMKVAEVLSECRLLAYISQVPTQMSFLFRLINIIHVQTLTQENVSCLNTSLVILMLARRKERLPLYLRLLQRMEHSKKYPGFLLNNFHNLLRFWQQHYLHKDKDSTCLENSSCISFSYWKETVSILLNPDRQSPSALVSYIEEPYMDIDRDFTEE	binds	–	–
